# Values of other authors, collected in patent publication US8394845B2, “Method of using combination preparation comprising angiotensin-II-receptor blocker and HMG-CoA reductase inhibitor” (Hanall Biopharma Co., Ltd., priority 2006, dated 2013).
# By UniProt entry, the sequences of proteins in these tests, tags left out.
# UniProt P08183, whole entry: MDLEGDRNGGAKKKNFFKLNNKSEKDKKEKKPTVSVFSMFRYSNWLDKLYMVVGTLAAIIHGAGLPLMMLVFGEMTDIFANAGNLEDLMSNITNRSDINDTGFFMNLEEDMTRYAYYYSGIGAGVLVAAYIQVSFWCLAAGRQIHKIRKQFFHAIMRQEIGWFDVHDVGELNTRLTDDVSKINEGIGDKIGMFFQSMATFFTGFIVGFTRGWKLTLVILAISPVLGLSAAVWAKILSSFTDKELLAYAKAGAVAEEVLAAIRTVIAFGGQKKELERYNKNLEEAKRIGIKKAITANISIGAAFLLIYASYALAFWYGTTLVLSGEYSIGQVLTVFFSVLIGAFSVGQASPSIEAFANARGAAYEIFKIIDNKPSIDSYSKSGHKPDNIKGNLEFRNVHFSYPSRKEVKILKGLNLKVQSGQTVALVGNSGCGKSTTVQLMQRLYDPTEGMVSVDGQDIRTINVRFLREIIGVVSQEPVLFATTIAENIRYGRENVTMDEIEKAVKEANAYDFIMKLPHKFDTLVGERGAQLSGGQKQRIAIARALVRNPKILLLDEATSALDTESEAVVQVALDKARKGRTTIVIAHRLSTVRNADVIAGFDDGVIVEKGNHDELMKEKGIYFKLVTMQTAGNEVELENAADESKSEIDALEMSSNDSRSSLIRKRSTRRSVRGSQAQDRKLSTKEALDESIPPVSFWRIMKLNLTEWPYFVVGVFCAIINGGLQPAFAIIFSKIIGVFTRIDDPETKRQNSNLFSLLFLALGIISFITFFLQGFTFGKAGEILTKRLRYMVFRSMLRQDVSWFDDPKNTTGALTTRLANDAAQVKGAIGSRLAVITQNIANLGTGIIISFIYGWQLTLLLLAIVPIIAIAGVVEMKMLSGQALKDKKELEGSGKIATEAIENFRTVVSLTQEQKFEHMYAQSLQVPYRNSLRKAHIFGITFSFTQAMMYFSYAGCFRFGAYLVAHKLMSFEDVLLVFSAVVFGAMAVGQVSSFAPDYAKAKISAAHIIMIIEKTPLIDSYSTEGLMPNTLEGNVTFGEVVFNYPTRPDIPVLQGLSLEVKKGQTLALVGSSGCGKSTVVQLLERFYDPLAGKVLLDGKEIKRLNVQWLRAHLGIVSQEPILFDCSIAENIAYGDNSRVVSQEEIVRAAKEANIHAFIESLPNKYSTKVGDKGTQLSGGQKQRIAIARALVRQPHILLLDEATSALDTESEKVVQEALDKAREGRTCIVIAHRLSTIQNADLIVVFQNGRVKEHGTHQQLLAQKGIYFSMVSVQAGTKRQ
# Biological target: P-Glycoprotein transporter (Homo sapiens, UniProt P08183)
# Conditions: reported by Pailwal et al
structure (smiles),measurement,value
CC(C)c1c(C(=O)Nc2ccccc2)c(-c2ccccc2)c(-c2ccc(F)cc2)n1CC[C@@H](O)C[C@@H](O)CC(=O)O [atorvastatin],substrate of P-Glycoprotein transporter,substrates of P-Glycoprotein transporter
